Experimental data reported in article PMC6604950.
Results are given in words; binding and its absence hold for the method and conditions named. In cells and extracts the contact can be indirect. Some results given as binding are weak or reduced against the parent protein; the word gives no strength. Sequences can lack the tags named with a protein.

By UniProt entry, the sequences of proteins in these tests, tags left out.
UniProt P72772: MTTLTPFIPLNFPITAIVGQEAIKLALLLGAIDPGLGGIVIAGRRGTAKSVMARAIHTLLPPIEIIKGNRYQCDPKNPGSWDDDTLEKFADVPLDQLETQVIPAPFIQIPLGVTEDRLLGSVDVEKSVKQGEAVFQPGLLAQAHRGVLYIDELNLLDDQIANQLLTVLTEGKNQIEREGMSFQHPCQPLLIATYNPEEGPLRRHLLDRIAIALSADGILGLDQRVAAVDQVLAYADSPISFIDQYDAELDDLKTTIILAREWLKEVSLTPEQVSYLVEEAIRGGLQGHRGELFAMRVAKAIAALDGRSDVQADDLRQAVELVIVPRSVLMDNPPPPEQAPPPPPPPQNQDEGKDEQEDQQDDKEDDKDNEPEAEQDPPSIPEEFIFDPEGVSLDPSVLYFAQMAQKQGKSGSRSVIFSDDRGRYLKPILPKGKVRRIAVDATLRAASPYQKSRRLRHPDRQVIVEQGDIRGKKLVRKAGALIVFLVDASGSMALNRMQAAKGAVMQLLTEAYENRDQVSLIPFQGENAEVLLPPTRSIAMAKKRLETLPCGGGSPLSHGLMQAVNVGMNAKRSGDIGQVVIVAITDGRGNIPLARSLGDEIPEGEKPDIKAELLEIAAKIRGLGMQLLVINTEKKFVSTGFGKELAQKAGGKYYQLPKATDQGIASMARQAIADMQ

Molecular target: T1, StrepII-ChlH (N-terminally StrepII-tagged Synechocystis ChlH) (Synechocystis sp. PCC 6803) (UniProt P73020)
T1 sequence: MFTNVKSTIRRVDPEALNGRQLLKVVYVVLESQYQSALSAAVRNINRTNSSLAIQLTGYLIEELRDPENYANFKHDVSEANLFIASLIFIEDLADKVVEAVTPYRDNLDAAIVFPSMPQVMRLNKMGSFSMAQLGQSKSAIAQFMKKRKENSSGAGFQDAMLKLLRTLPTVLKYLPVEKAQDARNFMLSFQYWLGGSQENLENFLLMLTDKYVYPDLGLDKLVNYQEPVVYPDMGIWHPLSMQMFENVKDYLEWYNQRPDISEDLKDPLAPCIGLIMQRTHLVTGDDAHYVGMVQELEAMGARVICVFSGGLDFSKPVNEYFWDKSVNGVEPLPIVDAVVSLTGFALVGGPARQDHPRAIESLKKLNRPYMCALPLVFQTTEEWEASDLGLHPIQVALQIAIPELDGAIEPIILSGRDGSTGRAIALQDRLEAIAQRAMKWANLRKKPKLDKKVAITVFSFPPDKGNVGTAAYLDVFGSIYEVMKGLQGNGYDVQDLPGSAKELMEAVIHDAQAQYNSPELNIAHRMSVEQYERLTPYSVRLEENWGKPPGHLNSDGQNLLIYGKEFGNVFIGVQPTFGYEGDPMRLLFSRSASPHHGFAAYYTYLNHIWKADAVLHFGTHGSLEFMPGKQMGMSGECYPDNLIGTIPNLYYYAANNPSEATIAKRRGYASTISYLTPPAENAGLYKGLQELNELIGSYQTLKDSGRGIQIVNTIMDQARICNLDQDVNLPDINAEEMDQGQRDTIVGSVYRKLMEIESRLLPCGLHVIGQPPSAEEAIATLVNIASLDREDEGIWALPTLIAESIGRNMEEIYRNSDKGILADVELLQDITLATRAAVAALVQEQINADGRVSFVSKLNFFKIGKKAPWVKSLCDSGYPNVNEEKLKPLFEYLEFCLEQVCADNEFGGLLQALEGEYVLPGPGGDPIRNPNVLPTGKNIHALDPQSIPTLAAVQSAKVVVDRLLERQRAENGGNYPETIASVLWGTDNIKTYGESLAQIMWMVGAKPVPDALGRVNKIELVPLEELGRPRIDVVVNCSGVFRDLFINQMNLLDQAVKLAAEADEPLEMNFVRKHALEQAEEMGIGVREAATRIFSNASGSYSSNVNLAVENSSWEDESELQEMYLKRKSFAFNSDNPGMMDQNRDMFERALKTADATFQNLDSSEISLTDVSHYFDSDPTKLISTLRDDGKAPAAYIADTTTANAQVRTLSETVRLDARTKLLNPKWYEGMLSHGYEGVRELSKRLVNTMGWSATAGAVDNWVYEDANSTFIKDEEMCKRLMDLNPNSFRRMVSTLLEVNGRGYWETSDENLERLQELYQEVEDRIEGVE
Assay: pull-down; StrepII-ChlH and untagged ChlD co-produced in E. coli; supernatant on a StrepTrap HP column; 100 mM Tris HCl, 1 mM EDTA, pH 8; eluted with 2.5 mM desthiobiotin; SDS-PAGE and Western blot

binding: binds
Substance: untagged ChlD (Synechocystis, co-produced with StrepII-ChlH) (from UniProt P72772 1-676)
